Reference: patent publication US20260265393A1

B1: 13B3 anti-human CD27 mouse monoclonal antibody (hybridoma clone) (antibody, V domains shown)
VH: QVQLQQSGPEQVKPGASVKISCKTSGYAFSQSWMNWVKQRPGQGLEWIGRIYPGDGDTNYNGIFKGKATLTADKSSSTAYMQLSSLTSLDSAVYFCASMIRTTYVMDHWGQGTSVTVTS
VL: DIVLTQSPATLSVTPGDSVSLSCRASQSVSNSLHWYQQKSHESPRLLIMYTSQSISGIPSRFSGSGSGTDFTLSINSVETEDFGMYFCQQSNSWPLTFGAGTKLELK
B2: 16B1 anti-human CD27 mouse monoclonal antibody (hybridoma clone) (antibody, V domains shown)
VH: QVQLQQSGPEQVKPGASVKISCKTSGYAFSQSWMNWVKQRPGQGLEWIGRIYPGDGDTNYNGIFKGKATLTADKSSSTAYMQLSSLTSLDSAVYFCASMIRTTYVMDHWGQGTSVTVTS
VL: DIVLTQSPATLSVTPGDSVSLSCRASQSVSNSLHWYQQKSHESPRLLIMYTSQSISGIPSRFSGSGSGTDFTLSINSVETEDFGMYFCQQSNSWPLTFGAGTKLELK
B3: 17H8 anti-human CD27 mouse monoclonal antibody (hybridoma clone) (antibody, V domains shown)
VH: EVKLEESGGGLVQPGGSMKLSCVASGFTFSNYWMNWVRQSPEKGLEWVAEIRLKSNNYATYYAESVKGRFTISRDDSKSSVYLQMNSLRGEDTGIYYCTLYDSSYYYAMDYWGQGTSVTVSS
VL: DVVLTQTPLSLPVNIGDQASISCKSTQSLLHSDGFTYLDWYLQKPGQSPQLLIYLVSNRFLGVPDRFSGSGSRTDFTLKISRVEAEDLGVYYCFQSNYLPLTFGGGTKLEI

Target: cynomolgus macaque CD27 recombinant protein (solid-phase) (cynomolgus macaque)
Assay: solid-phase binding, hybridoma screening

binding | Binder
binds | B1
binds | B2
binds | B3

No constants are given. Whether binding was seen depends on the method and setting. Binding can be weak; no strength is given.
